Laboratory results taken from PMC12092002.

Target: MCA-3::VN173 (C. elegans)
Experiment: split reporter; BiFC in vivo in C. elegans: split mVenus (VN173 and VC155); FLWR-1 fusion from its own promoter, partner fusion in body wall muscle cells; fluorescence imaged with x100 objective, 460 nm excitation, 500 ms exposure

- binding: binds
B1: FLWR-1::VC155 (protein, UniProt Q93533 1-166)
chain: MGAAASGVSTQMQAEHDPNAAFPWWVRFLAKGVAILGGFLSLFFGVLGLITLSATCMVAILLQMTAGALVIALEAPFCCQFVDFIEKIARFSESRALWHKAAIYGAMGLIPIFLCIELNTILGSGTIFASGVIYGFMALGKKADRSNMMAAGDPAWSPQVNQSNIP

Results are given in words; binding and its absence hold for the method and conditions named. Binding seen in cells or lysates may run through a third protein. A result given as binding can be weak or reduced; the word gives no strength.
